Results as given in publication PMC12518634, “The noncanonical function of liver-type phosphofructokinase potentiates the efficacy of HDAC inhibitors in cancer” (Signal Transduction and Targeted Therapy, 2025).
These are yes or no findings as the source states them, for the method shown. In cells and extracts the contact can be indirect. A yes stands for co-enrichment or nearness to the bait. Other partners may have been found. Sequences can lack the tags named with a protein.

Chains of the proteins cited; added tags and fusions are not shown.
UniProt Q13547: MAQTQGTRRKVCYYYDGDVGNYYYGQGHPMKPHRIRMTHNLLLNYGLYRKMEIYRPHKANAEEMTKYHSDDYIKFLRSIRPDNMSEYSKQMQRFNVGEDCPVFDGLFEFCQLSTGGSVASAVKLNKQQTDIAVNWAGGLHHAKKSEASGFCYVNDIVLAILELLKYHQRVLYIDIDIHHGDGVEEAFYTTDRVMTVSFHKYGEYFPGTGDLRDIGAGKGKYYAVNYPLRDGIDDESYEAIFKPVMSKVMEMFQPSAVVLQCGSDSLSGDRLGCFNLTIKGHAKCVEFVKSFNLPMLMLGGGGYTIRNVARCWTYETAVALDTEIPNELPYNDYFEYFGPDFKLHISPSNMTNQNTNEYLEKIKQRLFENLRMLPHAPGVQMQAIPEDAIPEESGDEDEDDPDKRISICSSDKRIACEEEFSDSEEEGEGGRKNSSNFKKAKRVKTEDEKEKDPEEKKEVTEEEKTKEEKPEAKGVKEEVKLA

Target: T1, PFKL (endogenous or tagged not stated; immunoprecipitates for mass spectrometry, co-IP of the PFK isoforms, purified PFKL added to HDAC1) (human) (UniProt P17858)
T1 sequence: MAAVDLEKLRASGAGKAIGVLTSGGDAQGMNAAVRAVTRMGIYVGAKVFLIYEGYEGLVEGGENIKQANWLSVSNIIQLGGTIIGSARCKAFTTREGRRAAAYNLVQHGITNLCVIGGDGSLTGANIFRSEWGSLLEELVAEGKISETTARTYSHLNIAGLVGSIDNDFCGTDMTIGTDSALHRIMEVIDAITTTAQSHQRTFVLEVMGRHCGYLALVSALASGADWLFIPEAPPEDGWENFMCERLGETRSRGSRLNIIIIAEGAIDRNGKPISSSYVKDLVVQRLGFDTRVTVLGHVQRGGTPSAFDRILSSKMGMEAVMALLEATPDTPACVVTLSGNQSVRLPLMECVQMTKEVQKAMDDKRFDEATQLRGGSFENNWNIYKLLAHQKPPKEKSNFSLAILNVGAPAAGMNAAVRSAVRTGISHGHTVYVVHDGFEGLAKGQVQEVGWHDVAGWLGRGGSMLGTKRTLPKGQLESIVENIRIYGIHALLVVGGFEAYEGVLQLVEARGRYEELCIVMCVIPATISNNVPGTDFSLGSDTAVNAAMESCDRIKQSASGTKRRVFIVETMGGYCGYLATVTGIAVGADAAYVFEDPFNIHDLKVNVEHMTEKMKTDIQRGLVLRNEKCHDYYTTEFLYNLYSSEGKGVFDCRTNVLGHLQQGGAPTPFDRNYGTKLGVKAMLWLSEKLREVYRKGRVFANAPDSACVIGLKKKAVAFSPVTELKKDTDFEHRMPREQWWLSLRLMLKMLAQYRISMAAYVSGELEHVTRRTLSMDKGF
Assay: affinity purification with mass spectrometry; mass spectrometry of PFKL immunoprecipitates

- binding: binds
Substance: HDAC1 (endogenous or tagged not stated; immunoprecipitates for mass spectrometry and co-IP with the PFK isoforms) (from UniProt Q13547 1-482) (enzyme)
